# Library screening results

Measurements from “University of Dundee, Small-Polar-MMV Screening Library” (2021), ChEMBL document CHEMBL3988442.

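Viability assay of Plasmodium falciparum sporozoites; the read-out is not stated. The concentration is filed as 10 mM, unlikely as a test dose, so the dose is not known. Higher reads as lower viability (inferred: compounds with an IC50 in retests scored well above the rest). Strong results were mostly tested again. About 34,000 compounds were tested under these conditions; 0.84% (about 280) showed 50% or more at least once.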

The filed quantity is “Percent Effect” (%). The record does not define 0% and 100%; most values in the screen are far below 50% and negative numbers occur (in some assays of this library far below -100). This is an unselected part of the compounds tested. Two or more numbers in one place are separate tests of the same structure; such repeats can differ widely.

structure,percent effect
O=C(CSC1=NS(=O)(=O)c2cc(F)ccc2N1)Nc1ccc(Cl)cc1,5.64
CC(OCCCNC(=O)c1cccnc1O)c1ccccc1 (centres undefined),11.19
O=C(O)C(F)(F)F.O=C(O)C(F)(F)F.[H][C@@]12COC[C@]1([H])[C@@H](OCc1cccnc1)CN2C(=O)Cc1ccccn1,10.44
N#Cc1cccnc1NCCNC(=O)NCCSC(F)(F)F,5.598
CCc1noc(C)c1C(=O)N1CCCCC1Cn1cc(C)cn1 (centres undefined),8.348
CCc1nc(CN2CCCC2c2c(C)nn(C)c2OC)no1 (centres undefined),6.057 and -26.13 and -3.853
Cc1nc(C)n(CC2CCCCN2CCC(=O)Nc2cc(C)on2)n1 (centres undefined),-20.05
COCCC(=O)N1CCC2(CCN(Cc3cccc(F)c3)C2)C1 (centres undefined),15.54
CCC(O)CN1CCN(C(=O)c2cccn2Cc2ccncc2)CC1 (centres undefined),6.654
CCn1nc(-c2ccccc2F)ccc1=O,8.535
[H][C@]12CCN(c3ncccc3F)C[C@]1(COC)CC[C@@H](N1CCOCC1)C2,0.1103
COc1ncccc1C(=O)N1CCC(CNC(C)=O)CC1,-4.721
COCc1nc(C(=O)N2CCCC(n3nc(C)nc3C)C2)cs1 (centres undefined),7.276
CCOCC1CN(Cc2ccoc2)Cc2ncn(CC3CC3)c21 (centres undefined),1.578
CN1CCc2c(C#N)c(NCc3ccccc3)n3cnnc3c2C1,8.084
Cl.Nc1ncc(-c2csc(NC(=O)C[C@H]3COCCN3)n2)cn1,-6.351
CC1CCN(CCNC(=O)c2ccccc2N2CCOCC2)CC1,-4.21
O=C(c1cc2ccccc2c(=O)[nH]1)N1CCN(CCO)CC1,-14.59
O=C(c1cn(Cc2ccccc2)c2ncccc12)N1CCOCC1,-0.9036
Cc1cccc(-c2noc(CN3CCCC3Cn3cncn3)n2)c1 (centres undefined),6.507
COc1ccc2c(c1)[C@@H](CCNC(C)=O)CC(C)(C)O2,3.641
COc1cc(NC(=O)Cn2ccc3sc(C)cc3c2=O)cc(OC)c1,3.24
Cc1ccc(CNCc2nnc3n2CCCC3C(F)(F)F)s1 (centres undefined),-10.94
Cc1ccc(NC2CCN(C(=O)CCNc3ncccn3)CC2)nn1,7.11
Cc1ncsc1-c1nnc(C2CCN(Cc3ccccc3Cl)CC2)o1,-4.017
CCN(CC1CCCO1)C(=O)CSCC(=O)Nc1ccc(C)cc1 (centres undefined),-25.08
CC(Oc1ccc(C(=O)NCCNS(C)(=O)=O)cn1)c1ccccc1 (centres undefined),-1.427
CCN1CCn2c(C)cnc2C12CCN(C(=O)c1ccc(Cl)cc1)CC2.O=C(O)C(F)(F)F,2.056
CCOCCC(=O)N1CCCN(Cc2csc(CC)n2)CC1,-15.27
O=C(O)C(F)(F)F.[H][C@@]12CCN(S(=O)(=O)c3ccccc3)CC[C@]1(C(=O)N(C)C)CCN2CC,-1.369
Cc1ncc(-c2ccnc(SCCN)n2)c(-c2ccco2)n1,4.996
Cc1cccc(N2Cc3nc(=O)[nH]n3C2=O)c1,-7.018
O=C(c1cccc(Cl)c1F)N1CCOC2(CNCCOC2)C1 (centres undefined),-10.26
Cc1ccc(NC2CCN(C(=O)c3cscn3)CC2)nn1,0.9887
Cc1cnc(N2CCC3(CC2)CN(Cc2cccs2)CCO3)nc1.O=C(O)C(F)(F)F.O=C(O)C(F)(F)F,-5.736
O=C(O)C(F)(F)F.[H][C@]12CC[C@@]3(N=C(CC)N(C)C3=O)[C@@]1([H])CN(Cc1ccc(F)cc1)C2,7.212
O=C(CN1CCCC1Cn1cncn1)Nc1cccnc1 (centres undefined),-8.063
NC(=O)CN1CCCN(C(=O)Cc2ccc(F)c(Br)c2)CC1,-20.34
c1ccc(CN2CCN(C3CCOC4(CCOCC4)C3)CC2)nc1 (centres undefined),2.686
CC(NC(=O)NCCCn1ccnc1)c1ccc2c(c1)OCCCO2 (centres undefined),-4.595
Cn1cc(CCNC(=O)NCc2nnc3n2CCC3)cn1,1.891
COc1cccc(-c2noc(CN3CCOCC3C)n2)c1 (centres undefined),13.2
Cc1cc(C)c2c(N3CCC(O)(Cn4ccnc4)CC3)ncnc2n1,-10.62
CC(C)n1c(=O)nc2n1C(=O)N(c1ccccc1)C2,-8.455
O=c1ccc(-c2cccs2)nn1CN1CCCCCC1,3.509
O=C(c1sccc1C1CC1)N1CCN(c2nccs2)CC1,-6.389
COCCn1ccc(NC(=O)Nc2cccnc2)n1,4.848
Cn1ccc(C(=O)N2CCC[C@]3(C[C@@H](OCc4ccccn4)CO3)C2)n1.O=C(O)C(F)(F)F,-13.71
Cl.Fc1ccccc1Cn1c(C2CCNCC2)cc2cccnc21,9.626
COCc1noc(-c2ccc(N3CCCCC3COC)nc2)n1 (centres undefined),46.38 and 65.96 and 53.91
CCn1cc(C(=O)N2CCOC(c3nc(-c4cccs4)no3)C2)cn1 (centres undefined),66.92 and 76 and 54.9
CC(O)CN1CCN(C(=O)c2ccc3c(c2)COC3)CC1 (centres undefined),-11.92

Once more, the final 7:

O=C(c1sccc1C1CC1)N1CCN(c2nccs2)CC1 gave -6.389%.
COCCn1ccc(NC(=O)Nc2cccnc2)n1 gave 4.848%.
Cn1ccc(C(=O)N2CCC[C@]3(C[C@@H](OCc4ccccn4)CO3)C2)n1.O=C(O)C(F)(F)F gave -13.71%.
Cl.Fc1ccccc1Cn1c(C2CCNCC2)cc2cccnc21 gave 9.626%.
COCc1noc(-c2ccc(N3CCCCC3COC)nc2)n1 (centres undefined) gave 46.38% and 65.96% and 53.91%.
CCn1cc(C(=O)N2CCOC(c3nc(-c4cccs4)no3)C2)cn1 (centres undefined) gave 66.92% and 76% and 54.9%.
CC(O)CN1CCN(C(=O)c2ccc3c(c2)COC3)CC1 (centres undefined) gave -11.92%.